The supplement of paper PMC3334620
Whole data set: some 33,000 sequences, median “E-score (-0.5 to 0.5)” near -0.015, cut for the highest 2% near 0.3. The list shows a part of the results.

These sequences were tested against T1, Abf1 (UniProt P14164) (assay: PBM E-score (8-mer binding enrichment) (E-score (-0.5 to 0.5)); higher = stronger / more preferred TF binding). Details: protein concentration: 200 nM; construct: GST-full length.
T1 sequence: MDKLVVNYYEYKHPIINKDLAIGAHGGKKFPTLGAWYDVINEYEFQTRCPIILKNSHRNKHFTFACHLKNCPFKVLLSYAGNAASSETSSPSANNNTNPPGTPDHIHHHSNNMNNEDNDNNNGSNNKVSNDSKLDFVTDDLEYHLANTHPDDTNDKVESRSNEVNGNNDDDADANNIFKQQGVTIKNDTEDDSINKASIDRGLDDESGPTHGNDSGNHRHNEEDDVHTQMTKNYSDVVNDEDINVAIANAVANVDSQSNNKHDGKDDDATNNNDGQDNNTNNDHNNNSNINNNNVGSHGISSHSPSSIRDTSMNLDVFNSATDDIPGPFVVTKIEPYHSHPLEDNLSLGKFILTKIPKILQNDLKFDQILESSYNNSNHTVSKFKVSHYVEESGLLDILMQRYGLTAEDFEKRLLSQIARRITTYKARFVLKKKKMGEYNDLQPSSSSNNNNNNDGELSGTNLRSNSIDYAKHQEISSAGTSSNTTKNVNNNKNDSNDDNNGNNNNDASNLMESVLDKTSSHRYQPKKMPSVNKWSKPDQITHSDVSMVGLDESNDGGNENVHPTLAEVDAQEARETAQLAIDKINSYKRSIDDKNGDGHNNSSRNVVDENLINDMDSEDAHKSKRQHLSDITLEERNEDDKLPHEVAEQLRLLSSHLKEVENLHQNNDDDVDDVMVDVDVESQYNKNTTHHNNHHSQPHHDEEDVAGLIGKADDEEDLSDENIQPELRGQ
Summary of the method: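 Yeast transcription factors, full-length or as DNA-binding domains, were expressed with a GST tag using PURExpress in vitro transcription/translation. At about 100-200 nM they were applied to universal all-10-mer Agilent arrays, double-stranded by primer extension on fresh or once-stripped slides. Fluorescent anti-GST detected bound protein, and masliner normalised the scans. E-scores for ungapped eight-base words, pooled with reverse complements, came from the Universal PBM Analysis Suite.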
ACTATGTA was tested, and the “PBM E-score” value was 0.0666. With ATGACTTG the “PBM E-score” value was 0.233. In the case of GTGCGATA, the “PBM E-score” value is reported as 0.073. For CCTAGGGA, the “PBM E-score” value was -0.0697. In the case of CCCCAAGC, the “PBM E-score” value is reported as -0.0905. In the case of CGGCCGAG, the “PBM E-score” value is reported as 0.0212. TCAATAGA was tested, and the “PBM E-score” value was -0.172. With ACAACGCC the “PBM E-score” value was 0.13. GAGAATGC was tested, and the “PBM E-score” value was 0.202. TACATAAA was tested, and the “PBM E-score” value was 0.0202. CACAATTC was tested, and the “PBM E-score” value was 0.102. GAGCGCCC was tested, and the “PBM E-score” value was -0.239. For AGCGAGTC, the “PBM E-score” value was -0.0419. In the case of AGTGCAAG, the “PBM E-score” value is reported as 0.0176. In the case of AACCGAGC, the “PBM E-score” value is reported as -0.042. For ATGGCCTC, the “PBM E-score” value was -0.152. In the case of AAGGTACT, the “PBM E-score” value is reported as 0.0524. ACTATCAC was tested, and the “PBM E-score” value was 0.288. GGGGCCGA was tested, and the “PBM E-score” value was -0.154. TAGATCCA was tested, and the “PBM E-score” value was -0.0512. In the case of CTGTGGCA, the “PBM E-score” value is reported as 0.152. In the case of CATAGTAA, the “PBM E-score” value is reported as 0.126. CCTTTGAA was tested, and the “PBM E-score” value was -0.0053. In the case of ACGGGGGC, the “PBM E-score” value is reported as -0.166. With CGTGATTC the “PBM E-score” value was 0.166. With TCGCCACA the “PBM E-score” value was 0.122. In the case of CGCCACAA, the “PBM E-score” value is reported as -0.029. With ACTCCCCT the “PBM E-score” value was -0.0144. GATCCTAC was tested, and the “PBM E-score” value was 0.13. CAAAGTGC was tested, and the “PBM E-score” value was -0.00433. AGGTGTAA was tested, and the “PBM E-score” value was 0.0121. In the case of ATCTCTGG, the “PBM E-score” value is reported as -0.127. In the case of CGCTGGTC, the “PBM E-score” value is reported as -0.178. ATCGCGAT was tested, and the “PBM E-score” value was 0.411. In the case of TGGTGACA, the “PBM E-score” value is reported as 0.357. With CCAGACAG the “PBM E-score” value was -0.2. With CCAACAGC the “PBM E-score” value was -0.209. With GAGGCGGA the “PBM E-score” value was -0.136. For ATCTGGCG, the “PBM E-score” value was -0.0132. With ACTCGTAA the “PBM E-score” value was 0.173. In the case of CCTGTTAG, the “PBM E-score” value is reported as -0.0285. For CATATATC, the “PBM E-score” value was 0.133. In the case of AAGTACCC, the “PBM E-score” value is reported as -0.234. CGTGAATA was tested, and the “PBM E-score” value was 0.179. With GACCTTAC the “PBM E-score” value was -0.00555. For ACCCCAAG, the “PBM E-score” value was -0.241. In the case of ATCGGACA, the “PBM E-score” value is reported as -0.0283. For CGGAAGCA, the “PBM E-score” value was 0.105. ATTGGCGG was tested, and the “PBM E-score” value was 0.00549. For CCCGGTGC, the “PBM E-score” value was -0.306. For CCCTATAC, the “PBM E-score” value was 0.111. With AAGATCTA the “PBM E-score” value was -0.042. In the case of AACGTCCA, the “PBM E-score” value is reported as 0.0678. TCCGCAAA was tested, and the “PBM E-score” value was -0.171. With GCGGCTGA the “PBM E-score” value was -0.23. CGGATTAG was tested, and the “PBM E-score” value was 0.148. With CCAACGGC the “PBM E-score” value was -0.0507. GTTATAGA was tested, and the “PBM E-score” value was 0.116. With AAAAAATG the “PBM E-score” value was 0.203. In the case of CGGCGGTA, the “PBM E-score” value is reported as 0.0868. With GGGAAGGA the “PBM E-score” value was -0.183. In the case of ATGGAGCG, the “PBM E-score” value is reported as 0.0862. ATCTAACA was tested, and the “PBM E-score” value was 0.183. With GGAGTCCC the “PBM E-score” value was -0.156. In the case of CCTATACG, the “PBM E-score” value is reported as 0.244. For TAGTTCAA, the “PBM E-score” value was -0.0129. AGTGGTCG was tested, and the “PBM E-score” value was -0.122. With TAGTGAGA the “PBM E-score” value was 0.0964. For AACTCACG, the “PBM E-score” value was 0.132. CAAATAAC was tested, and the “PBM E-score” value was 0.183. With AATCAACT the “PBM E-score” value was 0.0462. In the case of TAGAAGAA, the “PBM E-score” value is reported as -0.0339. For AGTTTTAT, the “PBM E-score” value was 0.158. For CCGAAGTA, the “PBM E-score” value was -0.159. With CGCCATAC the “PBM E-score” value was -0.00106. For CAATGCCA, the “PBM E-score” value was -0.0118. With CGTTCTTA the “PBM E-score” value was 0.181. In the case of ACATCGCC, the “PBM E-score” value is reported as 0.0117. In the case of AACCATTC, the “PBM E-score” value is reported as -0.0388. GGGGCGAC was tested, and the “PBM E-score” value was -0.213. In the case of CGTACGCA, the “PBM E-score” value is reported as 0.217. In the case of TCCTGCAA, the “PBM E-score” value is reported as -0.0922. For CGACATAG, the “PBM E-score” value was 0.0712. TGGCATAA was tested, and the “PBM E-score” value was 0.151. AAAAATTG was tested, and the “PBM E-score” value was 0.131. For AAAGGACG, the “PBM E-score” value was -0.00645.
